Counter-ions that a name gives are not always drawn. Some of the results follow. This is a noisy data set.
Tested on: Peyronie's disease tunica albuginea primary fibroblasts
Experiment: cell viability (DRAQ5 nuclear stain) relative to TGF-beta1-only control; higher = more viable cells
Conditions: 10 µM; TGF-beta1 10 ng/mL; 72 h

| Compound | cell viability |
| --- | --- |
| CCCCc1oc2ccccc2c1C(=O)c1cc(I)c(OCCN(CC)CC)c(I)c1 [Amiodarone HCl] | 97.7% |
| Cc1cnc(C(=O)N[C@H]2CCCCC/C=C\[C@@H]3C[C@@]3(C(=O)NS(=O)(=O)C3CC3)NC(=O)[C@@H]3C[C@@H](Oc4nc5ccccc5c5ccccc45)CN3C2=O)cn1 [Paritaprevir (ABT-450)] | 106% |
| O=C(O)c1cccnc1 [Nicotinic Acid] | 99.8% |
| Cc1cccc(N(C)C(=S)Oc2ccc3ccccc3c2)c1 [Tolnaftate] | 82.6% |
| C=CCNC1=C2C[C@@H](C)C[C@H](OC)[C@H](O)[C@@H](C)/C=C(\C)[C@H](OC(N)=O)[C@@H](OC)/C=C\C=C(/C)C(=O)NC(=CC1=O)C2=O [Tanespimycin (17-AAG)] | 57% |
| CN1CCN(c2ccc3nc(-c4c(N)c5c(F)cccc5[nH]c4=O)[nH]c3c2)CC1 [Dovitinib (TKI-258, CHIR-258)] | 72.8% |
| CN1CCN(c2ccc3nc(-c4c(N)c5c(F)cccc5[nH]c4=O)[nH]c3c2)CC1 [Dovitinib (TKI258) Lactate] | 65.5% |
| O=c1[nH]c(=O)n([C@H]2C[C@H](O)[C@@H](CO)O2)cc1I [Idoxuridine] | 86.1% |
| C[C@H]1C[C@H]2[C@@H]3CCC4=CC(=O)C=C[C@]4(C)[C@H]3C(=O)C[C@]2(C)[C@@]1(O)C(=O)CO [Meprednisone] | 93.3% |
| CCC(=O)OCC(=O)[C@@]1(OC(=O)CC)[C@@H](C)C[C@H]2[C@@H]3CCC4=CC(=O)C=C[C@]4(C)[C@@]3(F)[C@@H](O)C[C@@]21C [Betamethasone Dipropionate] | 79.3% |
| O=C(O)CCCN1CCC(O[C@@H](c2ccc(Cl)cc2)c2ccccn2)CC1 [Bepotastine Besilate] | 92.9% |
| NNC(=O)c1ccncc1 [Isoniazid] | 108% |
| CN1CCCN=C1/C=C/c1cccs1 [Pyrantel Pamoate] | 99% |
| CO[C@H]1C[C@@H]2CC[C@@H](C)[C@@](O)(O2)C(=O)C(=O)N2CCCC[C@H]2C(=O)O[C@H]([C@H](C)C[C@@H]2CC[C@@H](OC(=O)C(C)(CO)CO)[C@H](OC)C2)CC(=O)[C@H](C)/C=C(\C)[C@@H](O)[C@@H](OC)C(=O)[C@H](C)C[C@H](C)/C=C/C=C/C=C/1C | 71% |
| CCC[C@@H]1C[C@@H](C(=O)N[C@@H]([C@H]2O[C@H](SC)[C@H](O)[C@@H](O)[C@H]2O)[C@@H](C)O)N(C)C1 [Lincomycin Hydrochloride Monohydrate] | 86.7% |
| CCC[C@@H]1C[C@@H](C(=O)N[C@@H]([C@H]2O[C@H](SC)[C@H](O)[C@@H](O)[C@H]2O)[C@@H](C)O)N(C)C1 [Lincomycin HCl] | 87.9% |
| O=c1cc[nH]c(=O)[nH]1 [Uracil] | 97.6% |
| CCOC(=O)N1c2ccc(C(F)(F)F)cc2[C@@H](N(Cc2cc(C(F)(F)F)cc(C(F)(F)F)c2)C(=O)OC)C[C@H]1CC [Torcetrapib] | 92.6% |
| Cc1cccc(-c2nn3c(c2-c2ccnc4ccc(C(N)=O)cc24)CCC3)n1 | 204% |

Reformatted: entries from further up
Compound	cell viability
C[C@H]1C[C@H]2[C@@H]3CCC4=CC(=O)C=C[C@]4(C)[C@H]3C(=O)C[C@]2(C)[C@@]1(O)C(=O)CO [Meprednisone]	93.3%
NNC(=O)c1ccncc1 [Isoniazid]	108%
O=c1cc[nH]c(=O)[nH]1 [Uracil]	97.6%

Further results

| Compound | cell viability |
| --- | --- |
| CC(C)c1nc(CN(C)C(=O)N[C@@H](CCN2CCOCC2)C(=O)N[C@H](CC[C@H](Cc2ccccc2)NC(=O)OCc2cncs2)Cc2ccccc2)cs1 [Cobicistat (GS-9350)] | 86.1% |
| CC12CC3CC(C)(C1)CC(N)(C3)C2 [Memantine HCl] | 83.7% |
| CN1C(C(=O)Nc2ccccn2)=C(O)c2sc(Cl)cc2S1(=O)=O [Lornoxicam] | 90.9% |
| O=C(O)c1cccc(-c2noc(-c3ccccc3F)n2)c1 [Ataluren (PTC124)] | 91.8% |
| Nc1ccc(S(=O)(=O)Nc2nccs2)cc1 [Sulfathiazole] | 87.6% |
| CC(C)[N+]1(C)[C@@H]2CC[C@H]1C[C@@H](OC(=O)C(CO)c1ccccc1)C2 (some centres not stated) [Ipratropium Bromide] | 96.6% |
| Cc1ccc(-c2cc(C(F)(F)F)nn2-c2ccc(S(N)(=O)=O)cc2)cc1 [Celecoxib] | 88.4% |
| CN1CCc2nc(C(=O)N[C@@H]3C[C@@H](C(=O)N(C)C)CC[C@@H]3NC(=O)C(=O)Nc3ccc(Cl)cn3)sc2C1 [Edoxaban] | 82.2% |
| CN1CCc2nc(C(=O)N[C@@H]3C[C@@H](C(=O)N(C)C)CC[C@@H]3NC(=O)C(=O)Nc3ccc(Cl)cn3)sc2C1 [Edoxaban tosylate Monohydrate] | 81.4% |
| CC[C@H]1OC(=O)[C@H](C)[C@@H](O[C@H]2C[C@@](C)(OC)[C@@H](O)[C@H](C)O2)[C@H](C)[C@@H](O[C@@H]2O[C@H](C)C[C@H](N(C)C)[C@H]2O)[C@](C)(O)C[C@@H](C)CN(C)[C@H](C)[C@@H](O)[C@]1(C)O [Azithromycin Dihydrate] | 94.4% |
| CC[C@H]1OC(=O)[C@H](C)[C@@H](O[C@H]2C[C@@](C)(OC)[C@@H](O)[C@H](C)O2)[C@H](C)[C@@H](O[C@@H]2O[C@H](C)C[C@H](N(C)C)[C@H]2O)[C@](C)(O)C[C@@H](C)CN(C)[C@H](C)[C@@H](O)[C@]1(C)O [Azithromycin] | 95.7% |
| CN[C@H]1CC[C@@H](c2ccc(Cl)c(Cl)c2)c2ccccc21 [Sertraline HCl] | 97.8% |
| NC[C@H](O)c1ccc(O)c(O)c1 [Noradrenaline bitartrate monohydrate] | 90% |
| O=C(O)C1=C(CSc2nnnn2CS(=O)(=O)O)CS[C@@H]2[C@H](NC(=O)[C@H](O)c3ccccc3)C(=O)N12 [Cefonicid sodium] | 85.3% |
| C=C[C@]1(C)C[C@@H](OC(=O)CSC(C)(C)CNC(=O)[C@H](N)C(C)C)[C@]2(C)[C@H](C)CC[C@]3(CCC(=O)[C@H]32)[C@@H](C)[C@@H]1O [Valnemulin HCl] | 75.7% |
| CCc1cc2c(cc1CC)CC(NC[C@H](O)c1ccc(O)c3[nH]c(=O)ccc13)C2 [Indacaterol Maleate] | 86.2% |
| CCc1cc2c(cc1CC)CC(NC[C@H](O)c1ccc(O)c3[nH]c(=O)ccc13)C2 [Indacaterol] | 101% |
| CC(=O)Nc1nnc(S(N)(=O)=O)s1 [Acetazolamide] | 76.2% |

Reformatted in CSV form: part of the list above
Compound,cell viability
CCc1cc2c(cc1CC)CC(NC[C@H](O)c1ccc(O)c3[nH]c(=O)ccc13)C2 [Indacaterol Maleate],86.2%
CCc1cc2c(cc1CC)CC(NC[C@H](O)c1ccc(O)c3[nH]c(=O)ccc13)C2 [Indacaterol],101%
